In paper PMC6008489 (Bioorganic & Medicinal Chemistry, 2018):

Tested on: panel of 26 protein kinases
Test: Selectivity score over the 26-kinase panel
Assay type: biochemical, human
Settings: for selectivity score S(30%): ratio of the 26 kinases inhibited above 30%; for selectivity score S(50%): ratio of the 26 kinases inhibited above 50%; for selectivity score S(80%): ratio of the 26 kinases inhibited above 80%

SMILES	selectivity score S(30%) (compound at 100 µM)	selectivity score S(50%) (compound at 100 µM)	selectivity score S(80%) (compound at 100 µM)	number of members of the 26-kinase panel inhibited >50% (compound at 100 µM)	number of members of the 26-kinase panel inhibited >50% (compound at 30 µM)	selectivity score S(30%) (compound at 30 µM)	selectivity score S(50%) (compound at 30 µM)	selectivity score S(80%) (compound at 30 µM)
Nc1ccc[nH]c1=O [Compound 1, 3-aminopyridin-2-one]	0.31	0.08						
Cn1cc(-c2c[nH]c(=O)c(N)c2)cn1 [Compound 2, 3-Amino-5-(1-methyl-1H-pyrazol-4-yl)pyridin-2(1H)-one]	0.92	0.77	0.46					
COc1ncc(-c2ccncc2)cc1N [Compound 5, 6-Methoxy-3,4′-bipyridin-5-amine]	0.27	0.08						
Nc1cc(-c2ccnc3ccccc23)c[nH]c1=O [Compound 6]	0.42	0.19						
CNc1nccc(-c2c[nH]c(=O)c(N)c2)n1 [Compound 7]	0.96	0.92	0.42					
Nc1cc(-c2ccnc(NC3CC3)n2)c[nH]c1=O [Compound 8]	0.58	0.35	0.19					
Cc1nc(O)c(N)cc1-c1ccncc1 [Compound 15, 3-Amino-6-methyl-5-(pyridin-4-yl)pyridin-2-one]	0.23	0.04		one				
O=C(Nc1cc(-c2ccncc2)c[nH]c1=O)c1ccccc1 [Compound 16, N-(2-Oxo-5-(pyridin-4-yl)-1,2-dihydropyridin-3-yl)benzamide]					eight	0.35	0.31	0.04
CN1CCN(c2ccc(C(=O)Nc3cc(-c4ccncc4)c[nH]c3=O)cc2)CC1 [Compound 22]						0.54	0.38	0.35
O=C(Nc1cc(-c2ccnc(NC3CC3)n2)c[nH]c1=O)c1ccccc1 [Compound 24]						0.88	0.77	0.38
